Test results as given in the supplement of paper PMC12823440, “Inhibitors supercharge kinase turnover through native proteolytic circuits” (Nature, 2025).
The other results are listed elsewhere or left out. The calls rarely recur for the same compound in another form.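 Kinases were expressed as nanoluciferase fusions in K562 cells and luminescence was read every 4 h between 2 and 18 h as percent of control, DMSO set to 100% and a positive control to 0%. A time point counts as decreased when the signal drops significantly (2 sigma). The hit call is the authors' own, does not follow from the count of time points alone, and its rule is not shown.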

Amino acid sequences for entries named in this document (tags omitted). A change or cut given only in a name is not applied to a line headed by its entry.
UniProt Q9Y616: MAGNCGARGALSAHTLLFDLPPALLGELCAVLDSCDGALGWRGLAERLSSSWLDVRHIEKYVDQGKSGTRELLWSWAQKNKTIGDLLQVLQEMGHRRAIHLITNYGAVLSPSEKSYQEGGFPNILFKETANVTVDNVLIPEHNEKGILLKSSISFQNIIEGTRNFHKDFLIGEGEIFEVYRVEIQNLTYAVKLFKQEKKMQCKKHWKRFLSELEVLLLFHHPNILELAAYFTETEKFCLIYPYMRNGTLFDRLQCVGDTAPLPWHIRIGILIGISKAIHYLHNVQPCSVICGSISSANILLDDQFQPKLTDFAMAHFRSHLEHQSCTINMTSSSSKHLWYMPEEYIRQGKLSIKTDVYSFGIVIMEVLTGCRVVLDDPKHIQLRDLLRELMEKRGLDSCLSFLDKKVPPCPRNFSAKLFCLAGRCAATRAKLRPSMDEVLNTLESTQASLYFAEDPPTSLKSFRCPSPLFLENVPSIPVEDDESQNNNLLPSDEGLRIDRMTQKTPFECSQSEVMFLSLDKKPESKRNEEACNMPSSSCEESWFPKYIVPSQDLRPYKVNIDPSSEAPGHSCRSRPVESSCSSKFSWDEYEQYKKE
UniProt P23458: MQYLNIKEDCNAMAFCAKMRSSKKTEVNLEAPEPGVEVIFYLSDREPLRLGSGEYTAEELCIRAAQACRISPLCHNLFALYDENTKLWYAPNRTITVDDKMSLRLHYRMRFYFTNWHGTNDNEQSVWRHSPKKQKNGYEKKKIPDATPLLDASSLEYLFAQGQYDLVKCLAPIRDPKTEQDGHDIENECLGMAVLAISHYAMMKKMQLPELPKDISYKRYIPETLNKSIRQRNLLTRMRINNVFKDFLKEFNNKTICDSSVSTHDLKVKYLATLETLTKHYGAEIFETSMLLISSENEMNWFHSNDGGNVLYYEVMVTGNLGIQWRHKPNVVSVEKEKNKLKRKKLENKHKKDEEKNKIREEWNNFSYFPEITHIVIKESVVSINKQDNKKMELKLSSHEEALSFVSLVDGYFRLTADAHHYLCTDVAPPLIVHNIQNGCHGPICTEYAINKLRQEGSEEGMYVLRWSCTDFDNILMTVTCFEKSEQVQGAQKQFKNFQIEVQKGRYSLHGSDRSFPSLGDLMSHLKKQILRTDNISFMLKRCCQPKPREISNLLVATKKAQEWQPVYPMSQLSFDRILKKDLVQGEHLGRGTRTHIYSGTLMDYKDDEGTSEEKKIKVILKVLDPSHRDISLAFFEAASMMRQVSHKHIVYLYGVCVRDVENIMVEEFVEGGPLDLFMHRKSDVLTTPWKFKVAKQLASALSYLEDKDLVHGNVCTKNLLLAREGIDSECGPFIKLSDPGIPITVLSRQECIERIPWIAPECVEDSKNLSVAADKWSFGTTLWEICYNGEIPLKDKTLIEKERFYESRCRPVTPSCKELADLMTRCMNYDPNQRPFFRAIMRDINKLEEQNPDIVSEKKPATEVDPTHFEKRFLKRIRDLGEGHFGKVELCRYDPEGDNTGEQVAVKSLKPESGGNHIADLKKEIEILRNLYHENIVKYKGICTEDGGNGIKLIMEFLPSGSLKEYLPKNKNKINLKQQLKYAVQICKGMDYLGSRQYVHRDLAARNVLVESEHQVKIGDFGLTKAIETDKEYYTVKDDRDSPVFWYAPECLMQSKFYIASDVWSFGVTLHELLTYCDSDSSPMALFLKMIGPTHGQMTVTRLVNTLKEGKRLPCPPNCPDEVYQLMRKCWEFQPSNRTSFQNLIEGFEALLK

target: IRAK3 (UniProt Q9Y616); test: kinase-Nluc reporter destabilization hit call (1 = scored as downregulated) (binary); higher = compound decreases kinase abundance; settings: K562; 2-18 h

kinase-Nluc reporter destabilization hit call, inactive:
CC(C)=CC(=O)O[C@H]1Cc2cc3ccc(=O)oc3cc2OC1(C)C [Decursin] (10 µM) 0
O=C(N[C@@H](C1CC1)C(F)(F)F)c1cc(-c2cnn3cc(-c4ccc(F)cc4)cnc23)cs1 (10 µM) 0
CNc1cc(Nc2cccn(-c3ccccn3)c2=O)nn2c(C(=O)N[C@@H]3C[C@@H]3F)cnc12 (2.5 µM) 0
CS(=O)(=O)c1ccc(-c2cnc(N)c(-c3ccc(C(F)(F)F)nc3)c2)cc1 (10 µM) 0
CN(c1ccc(NC(=O)Nc2ccc(OC(F)(F)F)cc2)cc1)c1ccnc(Nc2cccc(S(N)(=O)=O)c2)n1 (2.5 µM) 0
Cc1ccc2c(Nc3cccc(Cl)c3F)nccc2c1NC(=O)c1csc2c(N)ncnc12 [Belvarafenib] (10 µM) 0
COc1nn(C)cc1Nc1nccc(-c2c[nH]c3c(NC(=O)[C@@H](C)N4CCN(C)CC4)cccc23)n1 (10 µM) 0

target: JAK1 (UniProt P23458); test: as above; settings: K562; 2-18 h

kinase-Nluc reporter destabilization hit call, inactive:
O=C(O)c1cc(N(Cc2ccccc2O)Cc2ccccc2O)ccc1O [Lavendustin B] (10 µM) 0
Cc1cnc(NC2CCOCC2)nc1-n1cnc(C(=O)N[C@H](CN)c2cc(F)cc(Cl)c2)c1 (10 µM) 0
Cn1ncc2cc(-c3cnc(N)c(Cl)c3N3CCC4(CCNC4=O)CC3)ccc21 (10 µM) 0
CC(C)c1cccc(C(C)C)c1N1C(=O)c2ccc(N)cc2C1=O (2.5 µM) 0
CC[C@@](C)(Nc1ccnc(-c2c[nH]c3ncccc23)n1)C(=O)NCC(F)(F)F [Decernotinib] (10 µM) 0
NC1=NCCN1CC(=O)O [Cyclocreatine] (10 µM) 0
Nc1c(C(=O)NCc2ccc(C(=O)NCCCC3CCCCC3)cc2)cnn1-c1ccccc1 (2.5 µM) 0
C[C@H](Nc1ncnc2nc[nH]c12)c1cc2cccc(Cl)c2c(=O)n1-c1ccccc1 [Duvelisib] (10 µM) 0
Cc1cc(Nc2nc(CC3(C(=O)O)CCN(C(=O)c4cccc(Cl)c4Cl)CC3)ccc2F)n[nH]1 (10 µM) 0
C[C@@H]1O[C@@H](O[C@@H]2[C@@H](O)[C@H](OCCc3ccc(O)c(O)c3)O[C@H](CO)[C@H]2OC(=O)/C=C/c2ccc(O)c(O)c2)[C@H](O)[C@H](O)[C@H]1O [Verbascoside] (10 µM) 0
O=C1/C(=C\c2ccc(Cl)cc2)C=C(c2ccccc2)N1c1ccc(O)cc1 (2.5 µM) 0
Nc1nccc(Oc2ccc(NC(=O)c3c[nH]cc(-c4ccc(F)cc4)c3=O)cc2F)c1Cl (10 µM) 0
COc1ccc(-c2c(C)nn3c(NCCN4CCOCC4)cc(C)nc23)cc1OC (10 µM) 0
O=C1NC(=O)C(c2cnc3ccccn23)=C1c1cn2c3c(cc(F)cc13)CNCC2 [GSK-3 inhibitor 1] (2.5 µM) 0
CCCCCCCC/C=C\CCCCCCCCCCCC(=O)O [Erucic acid] (10 µM) 0
O=C(Nc1nc2ccccc2[nH]1)c1cccc([N+](=O)[O-])c1 [IRAK-4 protein kinase inhibitor 2] (10 µM) 0
Cc1cccc(-c2[nH]c(C(C)(C)C)nc2-c2ccc3nccnc3c2)n1 (10 µM) 0
C[C@@H]1CC(=O)c2c(ccc3c2C(=O)c2cccc(O)c2C3=O)C1 [Ochromycinone] (10 µM) 0
CN1C(=O)[C@@H](NC(=O)c2n[nH]c(Cc3ccccc3)n2)COc2ccccc21 (10 µM) 0
CCc1cccc(CC)c1NC(=O)N1Cc2[nH]nc(NC(=O)c3ccc(N4CCN(C)CC4)cc3)c2C1 (2.5 µM) 0
COc1ccc(N=Nc2c(N)n[nH]c2N)cc1 (10 µM) 0
Cc1ccc(NC(=O)c2ccnc(C(F)(F)F)c2)cc1-c1cc(OCCO)nc(N2CCOCC2)c1 (10 µM) 0
CC(C)(O)[C@H]1CC[C@H](Nc2ccc3ncc(-c4cccc(C(F)(F)F)c4)n3n2)CC1 (10 µM) 0
CCn1c(=O)c(-c2cc[nH]n2)cc2c(C)nc(N)nc21 [Voxtalisib] (10 µM) 0
C[C@H](NC(=O)[C@H]1NCC[C@@H]1O)c1ccc(-c2noc(CCC3CCCC3)n2)cc1 (10 µM) 0

2 records drawn at random from those above, as already listed:
kinase-Nluc reporter destabilization hit call, inactive:
C[C@@H]1CC(=O)c2c(ccc3c2C(=O)c2cccc(O)c2C3=O)C1 [Ochromycinone] (10 µM) 0
Nc1c(C(=O)NCc2ccc(C(=O)NCCCC3CCCCC3)cc2)cnn1-c1ccccc1 (2.5 µM) 0
